{"sequences": {"note": "Chains of the proteins cited; added tags and fusions are not shown. Lines headed by an entry give the natural chain unless they say otherwise; changes in a name come on top.", "UniProt O00167": "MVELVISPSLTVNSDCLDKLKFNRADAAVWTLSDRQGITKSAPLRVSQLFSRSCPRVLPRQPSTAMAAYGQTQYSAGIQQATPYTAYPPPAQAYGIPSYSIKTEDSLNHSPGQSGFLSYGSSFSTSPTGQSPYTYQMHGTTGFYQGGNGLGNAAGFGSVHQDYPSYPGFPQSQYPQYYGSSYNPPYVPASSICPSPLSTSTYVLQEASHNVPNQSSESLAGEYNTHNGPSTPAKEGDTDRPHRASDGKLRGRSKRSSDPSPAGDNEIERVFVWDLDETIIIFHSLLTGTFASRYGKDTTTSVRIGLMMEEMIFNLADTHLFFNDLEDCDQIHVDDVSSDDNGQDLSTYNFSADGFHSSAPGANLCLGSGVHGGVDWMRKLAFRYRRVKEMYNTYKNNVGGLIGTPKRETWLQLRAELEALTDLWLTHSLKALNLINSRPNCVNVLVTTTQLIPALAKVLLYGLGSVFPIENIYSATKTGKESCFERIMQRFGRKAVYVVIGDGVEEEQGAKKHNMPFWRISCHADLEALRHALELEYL"}, "source": "PubChem BioAssay AID488837", "about": "(National Center for Advancing Translational Sciences (NCATS), 2010)", "note": "Out of some 330,000 compounds screened, about 20 (0.006%) were called active. This list was built around the results that the source calls inconclusive (neither active nor inactive); the mix of calls is not that of the screen. Calls come from the whole dose curve; as a rule, active = well fitted inhibition curve with a large enough effect; inconclusive = small, poorly fitted or top-dose-only effect, or effect the other way; inactive = flat fitted curve, though single readings scatter. Potencies beside an inconclusive call are fits to weak or partial responses and may not hold up. % is set by controls: 0 for no effect and ±100 for the full control effect; potency is the fitted concentration of half-maximal effect.", "data": [{"biological_target": "Protein phosphatase EYA2 (Homo sapiens) (UniProt O00167)", "experiment": "qHTS Assay for Inhibitors of the Phosphatase Activity of Eya2", "settings": "recombinant Eya2, OMFP fluorescence dephosphorylation (OMFP is methylfluorescein phosphate); activity, negative = inhibition: at 76.9 µM (top of the series) unless noted", "summary_of_the_method": "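Eya2 (0.2 uM) preincubated 10 min at ambient with compound, then OMFP substrate added at 50 uM; 10 min reaction in 50 mM HEPES pH 7.5, 50 mM NaCl, 5 uM MgCl2, 0.05% BSA, 1 mM DTT. Fluorescence read at Ex 485/Em 525 nm.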", "values": [{"smiles": "CC1N(C)c2cccc3cccc(c23)N1C", "Potency": "inactive"}, {"smiles": "Cc1ccc(/C=N/N=C2\\SCC(=O)N2CC2CC2)cc1", "Potency": "inconclusive: 89.1 µM [inhibitor, single point]"}, {"smiles": "COC(=O)c1ccc(=O)n(Cc2ccc3c(c2)OCO3)c1", "Potency": "inactive"}, {"smiles": "O=C(Cc1ccc(N2CCNC2=O)cc1)N1CCCC(Nc2cccc(F)c2)C1", "note": "(configuration not stated)", "Potency": "inconclusive: 141 µM [inhibitor, partial curve, poor fit]"}, {"smiles": "Cc1cccc(N2C(=O)CC(Sc3ncn[nH]3)C2=O)c1", "note": "(configuration not stated)", "Potency": "inconclusive: 224 µM [inhibitor, partial curve, poor fit]"}, {"smiles": "COc1cc(Cl)cc(/C=C/c2ccc3ccccc3n2)c1OC(C)=O", "Potency": "inactive"}, {"smiles": "CSc1ncc(Cl)c(C(=O)Nc2ccccc2C)n1", "Potency": "inconclusive: 56.2 µM [inhibitor, partial curve, poor fit]"}, {"smiles": "C#Cc1ccc([C@@H]2C=C(C(=O)NCc3nc4ccccc4[nH]3)O[C@H](OCC)[C@H]2CCCO)cc1", "Potency": "inconclusive: 100 µM [inhibitor, single point]"}, {"smiles": "Cc1ccc(S(=O)(=O)NNC(=S)NCCc2ccccc2)cc1", "Potency": "inconclusive: 15.8 µM [inhibitor, partial curve, poor fit]"}, {"smiles": "Cn1cccc1C(=O)C(=O)Nc1cccc(Cl)c1Cl", "Potency": "inconclusive: 20 µM [inhibitor, single point]"}, {"smiles": "Cc1ccc(N(C(=O)c2snc(C(N)=O)c2N)C(C(=O)NC2CCCC2)c2ccco2)cc1", "note": "(configuration not stated)", "Potency": "inactive"}, {"smiles": "CCOC(=O)c1sc(NC(=O)Nc2ccc(Cl)cc2)nc1C", "Potency": "inactive"}, {"smiles": "O=C(Nc1cccc(OCC(=O)N2CCOCC2)c1)c1cccc(Cl)c1", "Potency": "inconclusive: 100 µM [inhibitor, single point]"}, {"smiles": "CCOc1ccc(NC(=S)N2CCC(c3ccc(C)cc3)C2)cc1", "note": "(configuration not stated)", "Potency": "inconclusive: 25.1 µM [inhibitor, single point]"}, {"smiles": "CCOc1ccc(Nc2nc3ccccc3c(=O)s2)cc1", "Potency": "inconclusive: 126 µM [inhibitor, single point]"}, {"smiles": "NCCCC[C@H](NC(=O)C1CCNCC1)c1nnc(CN)o1", "Potency": "inconclusive: 17.8 µM [inhibitor, single point]"}, {"smiles": "CC(=O)Nc1ccc(S(=O)(=O)NC(C)C(=O)NCC(c2ccco2)N(C)C)cc1", "note": "(configuration not stated)", "Potency": "inactive"}, {"smiles": "COc1ccc(CC(C)N2CCN(Cc3ccccc3)CC2)cc1OC", "note": "(configuration not stated)", "Potency": "inactive"}, {"smiles": "C[C@@H]1C=C(C(=O)N2CCOCC2)O[C@H](OCc2ccc(CO)cc2)C1", "Potency": "inconclusive: 25.1 µM [inhibitor, single point]"}, {"smiles": "O=C1CCC(C(=O)N2CCSCC2)CN1CCc1cccc(F)c1", "note": "(configuration not stated)", "Potency": "inconclusive: 20 µM [inhibitor, single point]"}, {"smiles": "CC(=O)Oc1ccc2cc(-c3ccccc3)c(=O)oc2c1", "Potency": "inactive"}, {"smiles": "Cc1cccn2c(=O)c(C(=O)NCCCN3CCCCC3C)c(O)nc12", "note": "(configuration not stated)", "Potency": "inconclusive: 17.8 µM [inhibitor, single point]"}, {"smiles": "COc1cccc(-n2nnnc2SCC(=O)Nc2ccc(OC)cc2OC)c1", "Potency": "inconclusive: 22.4 µM [inhibitor, single point]"}, {"smiles": "O=S(=O)(c1ccc(F)cc1)N1CCC2(CC1)OCCN2S(=O)(=O)c1cccs1", "Potency": "inconclusive: 17.8 µM [inhibitor, partial curve, poor fit]"}, {"smiles": "O=C(O)CSCC(=O)N(Cc1ccccc1)c1nc(-c2ccccc2)c(-c2ccccc2)s1", "Potency": "inactive"}, {"smiles": "CCCOc1ccc(CCC(=O)N/N=C/c2ccc([N+](=O)[O-])o2)cc1", "Potency": "inconclusive: 100 µM [inhibitor, single point]"}, {"smiles": "O=C(NCCCn1cccn1)C1CCC(=O)N(Cc2ccccc2F)C1", "note": "(configuration not stated)", "Potency": "inconclusive: 20 µM [inhibitor, single point]"}, {"smiles": "O=C(CCn1c(=O)oc2ccccc21)n1c(=O)oc2ccccc21", "Potency": "inconclusive: 20 µM [inhibitor, single point]"}, {"smiles": "Cn1nc(-c2ccc(NCCO)c([N+](=O)[O-])c2)c2ccccc2c1=O", "Potency": "inconclusive: 89.1 µM [inhibitor, single point]"}, {"smiles": "O=C(COC(=O)c1cnccn1)Nc1ncc(C(F)(F)F)cc1Cl", "Potency": "inconclusive: 158 µM [inhibitor, partial curve, poor fit]"}, {"smiles": "Cc1cccc(N2CCN(c3nnc(C(F)(F)F)s3)CC2)c1", "Potency": "inconclusive: 200 µM [inhibitor, partial curve, poor fit]"}, {"smiles": "O=C(O)Cc1ccc(N=Nc2c(O)c(C(=O)O)cc3ccccc23)cc1", "Potency": "inconclusive: 501 µM [inhibitor, partial curve, poor fit]"}, {"smiles": "COc1ccccc1NC(=O)c1ccc(-c2ccccc2F)o1", "Potency": "inconclusive: 25.1 µM [inhibitor, partial curve, poor fit]"}, {"smiles": "CCN(CC)C(=O)Cn1c(C)c(/C=C/c2cc[n+](C)cc2)c2ccccc21", "activity, negative = inhibition": "inconclusive: 36.4% [activator]"}, {"smiles": "COc1cccc(C(C(=O)NC2CCCC2)N(C(=O)c2ccco2)c2ccc(NC(C)=O)cc2)c1OC", "note": "(configuration not stated)", "Potency": "inconclusive: 15.8 µM [inhibitor, single point]"}, {"smiles": "CN(C)c1ccc(/C=N/NC(=S)NCc2ccco2)cc1", "Potency": "inactive"}, {"smiles": "Cc1ccc(C2=Nc3ccccc3SC(c3cccc([N+](=O)[O-])c3)C2)cc1", "note": "(configuration not stated)", "Potency": "inconclusive: 355 µM [inhibitor, partial curve, poor fit]"}, {"smiles": "CN(NS(=O)(=O)c1ccc(Cl)cc1)c1cnn(C)c(=O)c1Cl", "Potency": "inconclusive: 100 µM [inhibitor, single point]"}, {"smiles": "O=C(Cc1ccc(NC2=NC3CS(=O)(=O)CC3S2)cc1)NCc1ccccc1", "note": "(configuration not stated)", "Potency": "inconclusive: 20 µM [inhibitor, single point]"}, {"smiles": "Cc1ccc(/C=C/C(=O)OCC(=O)N2CC(=O)Nc3ccccc32)o1", "Potency": "inconclusive: 562 µM [inhibitor, partial curve, poor fit]"}, {"smiles": "COC(=O)C1=CO[C@@H](C)[C@H]2CN3CCc4c([nH]c5ccccc45)[C@@H]3C[C@H]12", "Potency": "inactive"}, {"smiles": "Cc1ccc(Cl)cc1NS(=O)(=O)c1ccc2c(c1)NC(=O)C(C)C(=O)N2", "note": "(configuration not stated)", "Potency": "inconclusive: 100 µM [inhibitor, single point]"}, {"smiles": "Cc1ccc(-c2nn(C)c(=O)c3ccccc23)cc1CNC(=O)NC1CCCCC1", "Potency": "inconclusive: 100 µM [inhibitor, single point]"}, {"smiles": "COc1ccc(Cl)cc1Nc1nc(-c2sc(NC(=O)c3ccccc3)nc2C)cs1", "Potency": "inconclusive: 200 µM [inhibitor, single point]"}, {"smiles": "COc1ccc(-c2noc(CCCC(=O)Nc3ccc(C(N)=O)cc3)n2)cc1OC", "Potency": "inconclusive: 112 µM [inhibitor, single point]"}, {"smiles": "Cc1nn(-c2ccccc2)c(Cl)c1/C=N/NC(=O)c1ccncc1", "Potency": "inactive"}, {"smiles": "O=C1c2cccc3c(N4CCCCC4)ccc(c23)C(=O)N1c1ccccc1O", "Potency": "inconclusive: 31.6 µM [activator, partial curve]"}, {"smiles": "COc1ccccc1C(=O)Nc1ccc(S(=O)(=O)N2CCCCC2)cc1", "Potency": "inactive"}, {"smiles": "CC(C)=CCC/C(C)=C/CNC(=O)C[C@H]1C[C@H](C(=O)N2CCCCC2)[C@@]2(C)c3[nH]c4cc(CCC(=O)N(C)C)ccc4c3CCN2C1=O", "Potency": "inactive"}, {"smiles": "COc1cc(/C=C2\\SC(=S)N(NC(=O)c3ccc(O)cc3)C2=O)ccc1O", "activity, negative = inhibition": "inconclusive: 44.7% [activator]"}, {"smiles": "O=c1c2cc(Cl)ccc2nc(-c2ccc(Cl)c(Cl)c2)n1O", "Potency": "inconclusive: 22.4 µM [inhibitor, single point]"}, {"smiles": "COC(=O)c1sc(N2C(=O)C(=O)/C(=C(/O)c3ccc(C)cc3)C2c2ccco2)nc1C", "note": "(configuration not stated)", "Potency": "inconclusive: 89.1 µM [inhibitor, single point]"}, {"smiles": "CC(NC(=O)c1cc(=O)[nH]c2ccccc12)c1ccccc1", "note": "(configuration not stated)", "Potency": "inactive"}, {"smiles": "Cn1cccc1/C=N/N1CCN(Cc2ccccc2)CC1", "Potency": "inconclusive: 56.2 µM [inhibitor, partial curve, poor fit]"}, {"smiles": "Cc1ccc(NC(=O)c2cc(=O)[nH]c3ccc(S(=O)(=O)N4CCOCC4)cc23)cc1", "Potency": "inconclusive: 100 µM [inhibitor, single point]"}, {"smiles": "O=C(NC1CCN(C(=S)Nc2ccc(F)cc2)CC1)C1CCCCC1", "Potency": "inactive"}, {"smiles": "COc1cc2nc(Nc3ccc(C)c(C)c3)nc(N)c2cc1OC", "Potency": "inconclusive: 100 µM [inhibitor, partial curve, poor fit]"}, {"smiles": "COc1ccc(C(=O)N2CCN(C)C(=O)[C@@H]2C)cc1OC1CCN(C(C)=O)CC1", "Potency": "inactive"}, {"smiles": "COc1ccc2nc(-c3ccccc3)cc(C(=O)OCC(=O)NC3CC3)c2c1", "Potency": "inactive"}, {"smiles": "Cc1ccc(CONC(=O)/N=C/N(C)C)cc1", "Potency": "inconclusive: 20 µM [inhibitor, single point]"}, {"smiles": "COc1ccc(/C(O)=C2/C(=O)C(=O)N(c3ccccn3)C2c2ccc(C(C)C)cc2)cc1", "note": "(configuration not stated)", "Potency": "inconclusive: 17.8 µM [inhibitor, single point]"}, {"smiles": "FC(F)(F)c1nc(-c2cccnc2)ncc1-c1nnnn1-c1ccccc1", "Potency": "inconclusive: 20 µM [inhibitor, single point]"}, {"smiles": "COc1cc(C(=O)Nc2cccc3c2CCCC3)cc(OC)c1OC", "Potency": "inconclusive: 25.1 µM [inhibitor, single point]"}, {"smiles": "Cn1c2ccc(F)cc2c2ncn(Cc3ccccn3)c(=O)c21", "Potency": "inconclusive: 112 µM [inhibitor, partial curve]"}, {"smiles": "COc1ccc(-n2c(-c3cccc(C)c3[N+](=O)[O-])n[nH]c2=S)cc1", "Potency": "inconclusive: 25.1 µM [inhibitor, single point]"}, {"smiles": "Cc1nn(Cc2ccccc2)c(Cl)c1C(=O)OCC#N", "Potency": "inconclusive: 25.1 µM [inhibitor, single point]"}, {"smiles": "CC1=CC(=C2C=CC(=O)C=C2)C=C(C)N1C", "Potency": "inconclusive: 22.4 µM [inhibitor, single point]"}]}]}
